Results published in publication PMC8842248.
These are yes or no findings as the source states them, for the method shown. In cells and extracts the contact can be indirect. Here binding means that the protein was enriched with, or labelled near, the bait; the list need not be complete.

Sequences of proteins named here, by UniProt entry; tags and fusion partners are left off.
UniProt P36405: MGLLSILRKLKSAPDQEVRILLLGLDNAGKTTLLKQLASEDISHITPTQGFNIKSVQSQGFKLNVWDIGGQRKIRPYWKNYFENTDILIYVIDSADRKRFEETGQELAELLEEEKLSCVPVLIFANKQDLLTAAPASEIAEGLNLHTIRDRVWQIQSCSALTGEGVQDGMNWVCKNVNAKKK
UniProt P36404: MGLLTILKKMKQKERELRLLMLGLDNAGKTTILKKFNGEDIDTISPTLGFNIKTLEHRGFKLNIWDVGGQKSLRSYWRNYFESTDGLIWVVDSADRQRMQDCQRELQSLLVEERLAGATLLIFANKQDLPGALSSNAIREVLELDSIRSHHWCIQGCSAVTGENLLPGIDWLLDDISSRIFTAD
UniProt P84085: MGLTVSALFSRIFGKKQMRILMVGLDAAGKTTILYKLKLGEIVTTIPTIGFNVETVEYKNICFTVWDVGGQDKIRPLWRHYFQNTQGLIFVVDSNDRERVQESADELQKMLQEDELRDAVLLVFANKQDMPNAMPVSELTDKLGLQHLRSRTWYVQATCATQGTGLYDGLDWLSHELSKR

Each substance was assayed against PDE6D SPR3 (PDE6D with a double His8-tag, vector pBDDB-SPR3) (UniProt O43924) (assay: affinity purification with mass spectrometry; 20 mg His-tagged PDE6D SPR3 added to HEK293F cells at lysis; nickel column, TEV, reverse nickel, Superdex 75; bands other than PDE6D cut from SDS-PAGE for proteomic mass spectrometry; only the target purified).

binding, binds:
ARL3, endogenous in HEK293F cells (from UniProt P36405 1-182)
ARL2, endogenous in HEK293F cells (from UniProt P36404 1-184)
ARF5 (ADP-ribosylation factor 5), endogenous in HEK293F cells (from UniProt P84085 1-180)
